According to PMC13191460:
These are yes or no findings as the source states them, for the method shown. In cells and extracts the contact can be indirect. Here binding means that the protein was enriched with, or labelled near, the bait; the list need not be complete.

Biological target: SFB-DDX11 (from pIRES2-SFB-DDX11) (human) (UniProt Q96FC9)
Assay: affinity purification with mass spectrometry; tandem affinity purification of SFB-DDX11 from transfected NOZ cells (72 h), NETN lysis buffer; Flag M2 beads, elution with Flag peptide, then S protein agarose; SDS-PAGE, silver stain, bands excised for LC-MS/MS; SFB-vector as control

binding: binds
B1: RAD51B (endogenous) (protein, UniProt O15315 1-384)
chain: MGSKKLKRVGLSQELCDRLSRHQILTCQDFLCLSPLELMKVTGLSYRGVHELLCMVSRACAPKMQTAYGIKAQRSADFSPAFLSTTLSALDEALHGGVACGSLTEITGPPGCGKTQFCIMMSILATLPTNMGGLEGAVVYIDTESAFSAERLVEIAESRFPRYFNTEEKLLLTSSKVHLYRELTCDEVLQRIESLEEEIISKGIKLVILDSVASVVRKEFDAQLQGNLKERNKFLAREASSLKYLAEEFSIPVILTNQITTHLSGALASQADLVSPADDLSLSEGTSGSSCVIAALGNTWSHSVNTRLILQYLDSERRQILIAKSPLAPFTSFVYTIKEEGLVLQETTFCSVTQAELNWAPEILPPQPPEQLGLQMCHHTQLIF
